# In the supplement of paper PMC7666118:
# Amino acid sequences for entries named in this document (tags omitted). A change or cut given only in a name is not applied to a line headed by its entry.
# UniProt P17980, whole entry: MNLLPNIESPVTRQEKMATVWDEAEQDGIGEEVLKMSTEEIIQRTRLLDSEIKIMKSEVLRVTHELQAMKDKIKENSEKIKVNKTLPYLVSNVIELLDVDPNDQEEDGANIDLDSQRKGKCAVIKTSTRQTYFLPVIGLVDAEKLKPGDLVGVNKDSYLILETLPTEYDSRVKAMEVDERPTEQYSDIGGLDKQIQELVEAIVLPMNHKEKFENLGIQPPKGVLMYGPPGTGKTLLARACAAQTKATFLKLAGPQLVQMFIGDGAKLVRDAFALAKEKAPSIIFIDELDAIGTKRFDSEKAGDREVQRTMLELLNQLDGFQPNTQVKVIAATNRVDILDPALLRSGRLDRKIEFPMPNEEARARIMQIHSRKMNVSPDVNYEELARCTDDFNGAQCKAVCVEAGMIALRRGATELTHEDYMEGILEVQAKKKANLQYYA
# UniProt P25787: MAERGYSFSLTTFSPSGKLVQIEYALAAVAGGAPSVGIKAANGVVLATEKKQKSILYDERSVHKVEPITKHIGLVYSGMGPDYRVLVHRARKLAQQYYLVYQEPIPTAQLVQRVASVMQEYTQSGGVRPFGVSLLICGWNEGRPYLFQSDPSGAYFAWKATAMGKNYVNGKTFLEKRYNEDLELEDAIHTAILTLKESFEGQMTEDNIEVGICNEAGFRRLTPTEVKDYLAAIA
# UniProt Q8N8N7: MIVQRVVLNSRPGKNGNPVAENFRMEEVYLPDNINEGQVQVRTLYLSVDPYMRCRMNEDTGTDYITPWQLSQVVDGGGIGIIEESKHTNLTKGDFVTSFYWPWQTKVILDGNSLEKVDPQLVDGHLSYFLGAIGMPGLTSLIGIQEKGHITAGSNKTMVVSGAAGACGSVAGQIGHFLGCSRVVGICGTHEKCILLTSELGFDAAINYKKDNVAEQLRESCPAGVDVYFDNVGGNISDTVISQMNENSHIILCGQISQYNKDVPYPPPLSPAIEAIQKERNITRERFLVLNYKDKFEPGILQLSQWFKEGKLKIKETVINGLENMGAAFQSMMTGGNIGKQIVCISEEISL
# UniProt Q05209: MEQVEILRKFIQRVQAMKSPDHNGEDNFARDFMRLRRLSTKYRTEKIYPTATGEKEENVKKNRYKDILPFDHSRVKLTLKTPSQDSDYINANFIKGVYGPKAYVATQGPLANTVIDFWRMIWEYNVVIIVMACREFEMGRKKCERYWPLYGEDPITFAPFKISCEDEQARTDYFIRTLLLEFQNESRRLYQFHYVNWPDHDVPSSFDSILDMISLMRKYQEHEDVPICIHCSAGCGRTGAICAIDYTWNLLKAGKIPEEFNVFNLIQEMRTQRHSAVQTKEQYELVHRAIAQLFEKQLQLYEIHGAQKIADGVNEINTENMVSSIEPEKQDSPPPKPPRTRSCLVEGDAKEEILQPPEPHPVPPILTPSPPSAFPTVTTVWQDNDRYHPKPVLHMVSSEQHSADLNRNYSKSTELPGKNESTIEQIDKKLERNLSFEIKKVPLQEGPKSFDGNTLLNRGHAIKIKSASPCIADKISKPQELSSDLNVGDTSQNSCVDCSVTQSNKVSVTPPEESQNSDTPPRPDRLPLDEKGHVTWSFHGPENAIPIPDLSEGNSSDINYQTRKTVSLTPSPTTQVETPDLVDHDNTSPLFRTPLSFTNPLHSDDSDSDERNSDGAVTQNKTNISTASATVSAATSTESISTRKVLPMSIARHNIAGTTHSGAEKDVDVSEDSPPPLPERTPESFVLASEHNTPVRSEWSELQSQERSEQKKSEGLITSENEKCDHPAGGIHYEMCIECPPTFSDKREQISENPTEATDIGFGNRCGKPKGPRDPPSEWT
# UniProt P18031: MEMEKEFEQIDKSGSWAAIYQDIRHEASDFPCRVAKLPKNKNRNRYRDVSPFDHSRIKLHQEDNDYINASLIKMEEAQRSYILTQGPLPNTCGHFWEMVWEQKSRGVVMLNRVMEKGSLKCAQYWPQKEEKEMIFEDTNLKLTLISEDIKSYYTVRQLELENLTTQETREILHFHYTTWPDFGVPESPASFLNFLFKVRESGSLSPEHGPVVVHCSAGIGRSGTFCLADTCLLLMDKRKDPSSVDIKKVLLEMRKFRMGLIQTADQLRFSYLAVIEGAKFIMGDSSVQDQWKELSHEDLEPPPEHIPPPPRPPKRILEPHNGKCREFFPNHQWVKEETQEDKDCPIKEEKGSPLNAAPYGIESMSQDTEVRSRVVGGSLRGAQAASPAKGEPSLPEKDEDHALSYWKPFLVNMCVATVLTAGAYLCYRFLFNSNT
# UniProt Q5JS54: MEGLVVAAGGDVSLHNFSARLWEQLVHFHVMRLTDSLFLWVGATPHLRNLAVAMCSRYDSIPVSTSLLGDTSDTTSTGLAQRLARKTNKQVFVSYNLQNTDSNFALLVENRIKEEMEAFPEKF
# UniProt Q8TDY2, whole entry: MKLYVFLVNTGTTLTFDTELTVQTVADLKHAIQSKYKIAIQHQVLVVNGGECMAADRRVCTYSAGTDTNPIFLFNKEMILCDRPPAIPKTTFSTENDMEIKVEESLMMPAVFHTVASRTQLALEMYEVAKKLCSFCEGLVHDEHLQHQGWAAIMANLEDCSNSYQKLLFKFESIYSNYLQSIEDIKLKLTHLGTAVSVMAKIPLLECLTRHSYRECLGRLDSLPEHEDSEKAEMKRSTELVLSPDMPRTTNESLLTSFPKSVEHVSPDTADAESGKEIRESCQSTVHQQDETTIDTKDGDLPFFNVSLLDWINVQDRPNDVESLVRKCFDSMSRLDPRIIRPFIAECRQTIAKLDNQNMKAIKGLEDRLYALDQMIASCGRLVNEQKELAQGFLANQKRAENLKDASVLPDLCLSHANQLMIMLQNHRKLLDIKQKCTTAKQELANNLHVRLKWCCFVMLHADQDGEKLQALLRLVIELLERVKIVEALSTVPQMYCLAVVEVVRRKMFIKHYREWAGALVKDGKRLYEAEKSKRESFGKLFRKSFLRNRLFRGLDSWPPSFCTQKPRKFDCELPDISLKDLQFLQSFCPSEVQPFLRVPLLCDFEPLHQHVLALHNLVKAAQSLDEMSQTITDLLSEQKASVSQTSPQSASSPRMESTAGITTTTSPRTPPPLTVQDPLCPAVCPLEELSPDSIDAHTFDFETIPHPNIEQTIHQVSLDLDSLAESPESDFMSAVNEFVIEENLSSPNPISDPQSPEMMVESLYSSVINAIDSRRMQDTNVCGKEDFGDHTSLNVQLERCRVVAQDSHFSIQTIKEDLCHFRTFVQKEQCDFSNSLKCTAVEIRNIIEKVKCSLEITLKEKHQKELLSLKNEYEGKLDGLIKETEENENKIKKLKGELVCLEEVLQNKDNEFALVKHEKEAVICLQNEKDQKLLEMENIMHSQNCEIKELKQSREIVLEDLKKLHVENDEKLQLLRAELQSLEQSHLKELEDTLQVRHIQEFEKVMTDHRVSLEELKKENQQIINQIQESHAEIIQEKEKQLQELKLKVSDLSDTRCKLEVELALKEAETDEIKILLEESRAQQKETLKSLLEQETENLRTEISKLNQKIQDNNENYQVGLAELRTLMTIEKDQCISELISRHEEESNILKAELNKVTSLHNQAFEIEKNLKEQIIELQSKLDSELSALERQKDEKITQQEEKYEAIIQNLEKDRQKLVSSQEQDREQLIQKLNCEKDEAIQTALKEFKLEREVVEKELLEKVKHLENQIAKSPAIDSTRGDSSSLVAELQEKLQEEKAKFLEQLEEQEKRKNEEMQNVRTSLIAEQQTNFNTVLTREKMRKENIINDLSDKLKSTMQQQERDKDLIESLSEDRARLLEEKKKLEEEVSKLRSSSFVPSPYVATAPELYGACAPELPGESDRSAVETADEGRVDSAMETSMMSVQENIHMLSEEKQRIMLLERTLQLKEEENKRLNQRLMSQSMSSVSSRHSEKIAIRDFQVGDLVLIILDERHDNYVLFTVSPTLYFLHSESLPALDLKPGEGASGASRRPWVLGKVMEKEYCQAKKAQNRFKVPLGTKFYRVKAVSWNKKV
# UniProt Q969Q5: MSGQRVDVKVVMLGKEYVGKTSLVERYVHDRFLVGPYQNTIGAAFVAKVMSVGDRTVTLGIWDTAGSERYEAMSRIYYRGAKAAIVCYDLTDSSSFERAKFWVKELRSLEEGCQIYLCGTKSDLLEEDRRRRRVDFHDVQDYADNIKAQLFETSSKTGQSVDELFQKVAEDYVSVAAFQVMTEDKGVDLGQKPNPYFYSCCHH
# UniProt P51148: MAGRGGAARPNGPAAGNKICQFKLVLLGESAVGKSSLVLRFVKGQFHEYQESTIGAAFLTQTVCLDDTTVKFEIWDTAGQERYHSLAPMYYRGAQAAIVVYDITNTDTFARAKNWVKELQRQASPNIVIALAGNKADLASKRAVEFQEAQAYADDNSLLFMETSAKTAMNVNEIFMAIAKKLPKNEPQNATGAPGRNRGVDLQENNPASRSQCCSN
# UniProt Q9Y620: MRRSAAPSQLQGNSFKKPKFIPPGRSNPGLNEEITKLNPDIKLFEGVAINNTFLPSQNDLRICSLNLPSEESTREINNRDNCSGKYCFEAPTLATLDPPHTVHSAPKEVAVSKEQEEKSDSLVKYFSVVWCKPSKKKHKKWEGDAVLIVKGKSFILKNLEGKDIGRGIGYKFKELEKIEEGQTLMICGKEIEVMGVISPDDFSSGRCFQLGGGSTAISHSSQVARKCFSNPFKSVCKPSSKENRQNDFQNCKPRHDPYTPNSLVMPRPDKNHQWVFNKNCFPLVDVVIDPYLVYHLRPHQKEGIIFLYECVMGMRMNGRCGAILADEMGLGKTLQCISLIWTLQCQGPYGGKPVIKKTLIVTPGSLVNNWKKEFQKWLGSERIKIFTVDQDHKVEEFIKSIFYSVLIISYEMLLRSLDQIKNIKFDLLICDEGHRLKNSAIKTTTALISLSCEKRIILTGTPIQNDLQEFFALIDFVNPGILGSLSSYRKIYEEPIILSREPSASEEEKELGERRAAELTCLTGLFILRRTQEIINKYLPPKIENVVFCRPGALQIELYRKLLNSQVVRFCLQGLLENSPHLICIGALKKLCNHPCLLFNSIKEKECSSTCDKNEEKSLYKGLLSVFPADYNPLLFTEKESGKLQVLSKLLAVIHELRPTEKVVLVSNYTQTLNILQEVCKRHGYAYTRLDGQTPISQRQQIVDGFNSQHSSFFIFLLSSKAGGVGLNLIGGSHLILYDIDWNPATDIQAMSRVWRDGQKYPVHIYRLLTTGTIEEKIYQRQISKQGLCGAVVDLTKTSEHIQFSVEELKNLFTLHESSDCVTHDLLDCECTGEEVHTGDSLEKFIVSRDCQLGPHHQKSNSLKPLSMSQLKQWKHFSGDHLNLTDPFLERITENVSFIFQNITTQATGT
# UniProt Q6ZRP7: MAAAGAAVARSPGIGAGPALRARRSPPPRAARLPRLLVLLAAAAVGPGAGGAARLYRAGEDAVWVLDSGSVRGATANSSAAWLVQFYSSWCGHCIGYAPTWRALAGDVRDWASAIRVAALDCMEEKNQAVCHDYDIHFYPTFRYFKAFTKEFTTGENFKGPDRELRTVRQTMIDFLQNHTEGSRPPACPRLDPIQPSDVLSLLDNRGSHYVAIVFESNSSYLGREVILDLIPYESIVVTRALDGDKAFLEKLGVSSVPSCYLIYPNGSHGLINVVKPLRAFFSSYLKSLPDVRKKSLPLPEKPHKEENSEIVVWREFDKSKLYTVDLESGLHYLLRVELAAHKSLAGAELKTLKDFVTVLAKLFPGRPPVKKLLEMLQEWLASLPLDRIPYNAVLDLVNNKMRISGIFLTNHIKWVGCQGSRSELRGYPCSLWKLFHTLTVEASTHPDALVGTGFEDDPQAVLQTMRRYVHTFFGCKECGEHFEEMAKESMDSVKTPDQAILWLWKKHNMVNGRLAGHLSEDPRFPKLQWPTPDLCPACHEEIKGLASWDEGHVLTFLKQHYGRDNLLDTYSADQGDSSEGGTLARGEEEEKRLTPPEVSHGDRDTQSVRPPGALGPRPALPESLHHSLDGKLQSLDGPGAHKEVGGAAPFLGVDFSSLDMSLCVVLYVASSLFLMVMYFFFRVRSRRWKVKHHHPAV
# UniProt Q7LDG7: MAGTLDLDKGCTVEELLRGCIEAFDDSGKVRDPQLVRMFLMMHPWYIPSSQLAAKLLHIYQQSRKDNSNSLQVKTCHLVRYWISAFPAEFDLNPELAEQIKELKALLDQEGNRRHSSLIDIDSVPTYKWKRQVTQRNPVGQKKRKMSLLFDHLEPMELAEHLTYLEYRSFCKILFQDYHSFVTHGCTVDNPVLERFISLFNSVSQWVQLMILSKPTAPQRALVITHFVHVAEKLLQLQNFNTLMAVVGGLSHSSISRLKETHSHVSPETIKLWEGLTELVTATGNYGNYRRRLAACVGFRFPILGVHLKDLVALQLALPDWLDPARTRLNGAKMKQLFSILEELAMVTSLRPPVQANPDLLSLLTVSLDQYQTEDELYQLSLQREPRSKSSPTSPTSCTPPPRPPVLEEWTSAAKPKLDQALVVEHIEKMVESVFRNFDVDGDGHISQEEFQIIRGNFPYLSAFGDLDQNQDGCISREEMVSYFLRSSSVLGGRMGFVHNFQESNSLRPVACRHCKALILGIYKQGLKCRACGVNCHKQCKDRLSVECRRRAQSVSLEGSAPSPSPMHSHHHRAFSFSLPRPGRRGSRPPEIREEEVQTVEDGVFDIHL
# Some of the results follow.
# Compound: COc1ccc(Cn2ccc3ccc(C(=O)NO)cc32)cc1
# Experiment: dose-dependent thermal stabilisation call (2D-TPP, DLPTP, 10% FDR) (binary (1 = stabilised)); higher = stabilised by the compound
# Conditions: system: HL-60 intact cells; concentration range 0.04-10 µM
row,Target,dose-dependent thermal stabilisation call
1,PTPN11 (UniProt Q06124),inactive: 0
2,PSMC3 (UniProt P17980),inactive: 0
3,RAD51L3 (UniProt O75771),inactive: 0
4,RAD23A (UniProt P54725),inactive: 0
5,PSMA2 (UniProt P25787),inactive: 0
6,RAD18 (UniProt Q9NS91),inactive: 0
7,PTGR2 (UniProt Q8N8N7),inactive: 0
8,PTPN12 (UniProt Q05209),inactive: 0
9,PTPN1 (UniProt P18031),inactive: 0
10,PSEN1 (UniProt P49768),inactive: 0
11,RARS (UniProt P54136),inactive: 0
12,PROSC (UniProt O94903),inactive: 0
13,PSMG4 (UniProt Q5JS54),inactive: 0
14,PSMC3IP (UniProt Q9P2W1),inactive: 0
15,RASA3 (UniProt Q14644),inactive: 0
16,PUF60 (UniProt Q9UHX1),inactive: 0
17,RB1CC1 (UniProt Q8TDY2),inactive: 0
18,RBL2 (UniProt Q08999),inactive: 0
19,RAVER2 (UniProt Q9HCJ3),inactive: 0

row,Target,dose-dependent thermal stabilisation call
1,PYGB (UniProt P11216),inactive: 0
2,PTK2B (UniProt Q14289),active: 1
3,PSMG2 (UniProt Q969U7),inactive: 0
4,RAB24 (UniProt Q969Q5),inactive: 0
5,QRSL1 (UniProt Q9H0R6),inactive: 0
6,PRMT7 (UniProt Q9NVM4),inactive: 0
7,RAB5C (UniProt P51148),inactive: 0
8,RAE1 (UniProt P78406),inactive: 0
9,PYGL (UniProt P06737),inactive: 0
10,RAD54B (UniProt Q9Y620),inactive: 0
11,QSOX2 (UniProt Q6ZRP7),inactive: 0
12,RBM10,inactive: 0
13,PUS10 (UniProt Q3MIT2),inactive: 0
14,RB1 (UniProt P06400),inactive: 0
15,RASGRP2 (UniProt Q7LDG7),inactive: 0
16,RAP1A (UniProt P62834),inactive: 0
17,PSMA3 (UniProt P25788),inactive: 0
18,RBM39 (UniProt Q14498),inactive: 0
19,PSAT1 (UniProt Q9Y617),inactive: 0

# 3 neighbouring entries already listed, for reference:
row,Target,dose-dependent thermal stabilisation call
1,PYGB (UniProt P11216),inactive: 0
2,PTK2B (UniProt Q14289),active: 1
3,PSMG2 (UniProt Q969U7),inactive: 0
